Test results reported in PMC6142190.
These are yes or no findings as the source states them, for the method shown. For some assays here: Binding seen in cells or lysates may run through a third protein. Some entries that bind do so weakly or less than the wild type. For some assays here: Where a sequence is shown, tags or fusion partners need not be part of it.

Key:
[1] = molecular target: Factor Inhibiting HIF (FIH), endogenous (human (endogenous in HEK293)), Q9NWT6; test: co-IP; HEK293 lysates incubated with anti-FIH or anti-NAA10 antibody overnight at 4 °C, protein A/G beads, immunoblot; also after 2 mM DMOG for 6 h or lowered oxygen for 24 h (interaction reinforced); conditions: remark: other sources report otherwise
[2] = molecular target: FLAG-tagged FIH fragment 1-349 (human), Q9NWT6; test: co-IP; FIH fragments (1-164, 1-295, 1-349) expressed in HEK293; lysates immunoprecipitated and immunoblotted; conditions: remark: other sources report otherwise
[3] = molecular target: T1, NAA10, endogenous (human (endogenous in HEK293)), P41227; test: co-IP; HEK293 lysates incubated with anti-FIH or anti-NAA10 antibody overnight at 4 °C, protein A/G beads, immunoblot; also after 2 mM DMOG for 6 h or lowered oxygen for 24 h (interaction reinforced); conditions: remark: other sources report otherwise
T1 chain: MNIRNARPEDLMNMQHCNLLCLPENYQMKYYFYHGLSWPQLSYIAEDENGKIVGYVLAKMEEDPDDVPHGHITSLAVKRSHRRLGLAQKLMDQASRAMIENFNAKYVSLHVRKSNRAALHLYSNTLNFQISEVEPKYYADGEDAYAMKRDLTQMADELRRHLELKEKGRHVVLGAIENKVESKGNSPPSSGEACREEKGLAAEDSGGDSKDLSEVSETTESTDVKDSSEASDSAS

HA-FIH (human), Q9NWT6 = test: co-IP; HEK293 transfected with HA-FIH and/or FLAG/SBP-NAA10; lysates on anti-HA or anti-FLAG affinity gel, 4 °C, 4 h; immunoblot; conditions: remark: other sources report otherwise
[4] = molecular target: T2, FLAG/SBP-NAA10 (human), P41227; test: as above; conditions: remark: other sources report otherwise
T2 chain: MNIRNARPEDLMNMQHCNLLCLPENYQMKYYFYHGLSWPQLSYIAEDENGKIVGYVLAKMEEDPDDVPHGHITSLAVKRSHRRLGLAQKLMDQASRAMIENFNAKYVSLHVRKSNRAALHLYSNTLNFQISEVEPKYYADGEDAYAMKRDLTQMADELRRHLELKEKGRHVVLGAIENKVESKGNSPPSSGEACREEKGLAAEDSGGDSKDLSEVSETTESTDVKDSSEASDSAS

GST-FIH (human), Q9NWT6 [5] = test: pull-down; in vitro binding and acetylation assay: GST-FIH (0.5 μg) with His-NAA10 (0.5 μg) in acetylation buffer (50 mM Tris pH 8.0, 400 μM acetyl CoA), 37 °C, 2 h; GST-FIH pulled down on glutathione beads; Western blot; both purified; conditions: remark: other sources report otherwise
GST-FIH (human), Q9NWT6 [6] = test: pull-down; GST-FIH (0.5 μg) and His-NAA10 (0.5 μg) in binding buffer (25 mM HEPES pH 7.5, 150 mM KCl, 12.5 mM MgCl2, 0.5 mM DTT, 0.1% NP-40, 10% glycerol), 4 °C, 1 h; glutathione affinity beads; Western blot; both purified; conditions: remark: other sources report otherwise
[7] = molecular target: T3, FLAG-tagged FIH fragment 1-295 (human) (UniProt Q9NWT6); test: co-IP; FIH fragments (1-164, 1-295, 1-349) expressed in HEK293; lysates immunoprecipitated and immunoblotted
T3 sequence: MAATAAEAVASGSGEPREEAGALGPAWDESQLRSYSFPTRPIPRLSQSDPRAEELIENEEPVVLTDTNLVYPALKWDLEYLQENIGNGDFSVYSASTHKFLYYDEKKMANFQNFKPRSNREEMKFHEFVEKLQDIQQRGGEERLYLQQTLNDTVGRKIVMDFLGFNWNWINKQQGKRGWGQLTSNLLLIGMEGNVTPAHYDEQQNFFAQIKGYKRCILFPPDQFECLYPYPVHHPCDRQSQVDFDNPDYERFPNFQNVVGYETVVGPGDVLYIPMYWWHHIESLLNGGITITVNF

B1: NAA10, endogenous, P41227 1-235 (enzyme)
chain: MNIRNARPEDLMNMQHCNLLCLPENYQMKYYFYHGLSWPQLSYIAEDENGKIVGYVLAKMEEDPDDVPHGHITSLAVKRSHRRLGLAQKLMDQASRAMIENFNAKYVSLHVRKSNRAALHLYSNTLNFQISEVEPKYYADGEDAYAMKRDLTQMADELRRHLELKEKGRHVVLGAIENKVESKGNSPPSSGEACREEKGLAAEDSGGDSKDLSEVSETTESTDVKDSSEASDSAS
With B1 the binding [1] was “binds” and the binding [2] was “binds”.

B2: Factor Inhibiting HIF (FIH), endogenous, Q9NWT6 1-349 (enzyme)
chain: MAATAAEAVASGSGEPREEAGALGPAWDESQLRSYSFPTRPIPRLSQSDPRAEELIENEEPVVLTDTNLVYPALKWDLEYLQENIGNGDFSVYSASTHKFLYYDEKKMANFQNFKPRSNREEMKFHEFVEKLQDIQQRGGEERLYLQQTLNDTVGRKIVMDFLGFNWNWINKQQGKRGWGQLTSNLLLIGMEGNVTPAHYDEQQNFFAQIKGYKRCILFPPDQFECLYPYPVHHPCDRQSQVDFDNPDYERFPNFQNVVGYETVVGPGDVLYIPMYWWHHIESLLNGGITITVNFWYKGAPTPKRIEYPLKAHQKVAIMRNIEKMLGEALGNPQEVGPLLNTMIKGRYN
For B2, the binding [3] was “binds”.

B3: FLAG/SBP-NAA10, P41227-1 1-235 (enzyme)
chain: MNIRNARPEDLMNMQHCNLLCLPENYQMKYYFYHGLSWPQLSYIAEDENGKIVGYVLAKMEEDPDDVPHGHITSLAVKRSHRRLGLAQKLMDQASRAMIENFNAKYVSLHVRKSNRAALHLYSNTLNFQISEVEPKYYADGEDAYAMKRDLTQMADELRRHLELKEKGRHVVLGAIENKVESKGNSPPSSGEACREEKGLAAEDSGGDSKDLSEVSETTESTDVKDSSEASDSAS
For B3, the binding (HA-FIH (human), Q9NWT6) was “binds”.

B4: HA-FIH, Q9NWT6 1-349 (enzyme)
chain: MAATAAEAVASGSGEPREEAGALGPAWDESQLRSYSFPTRPIPRLSQSDPRAEELIENEEPVVLTDTNLVYPALKWDLEYLQENIGNGDFSVYSASTHKFLYYDEKKMANFQNFKPRSNREEMKFHEFVEKLQDIQQRGGEERLYLQQTLNDTVGRKIVMDFLGFNWNWINKQQGKRGWGQLTSNLLLIGMEGNVTPAHYDEQQNFFAQIKGYKRCILFPPDQFECLYPYPVHHPCDRQSQVDFDNPDYERFPNFQNVVGYETVVGPGDVLYIPMYWWHHIESLLNGGITITVNFWYKGAPTPKRIEYPLKAHQKVAIMRNIEKMLGEALGNPQEVGPLLNTMIKGRYN
With B4 the binding [4] was “binds”.

B5: His(6)-NAA10 WT, P41227-1 1-235 (enzyme)
chain: MNIRNARPEDLMNMQHCNLLCLPENYQMKYYFYHGLSWPQLSYIAEDENGKIVGYVLAKMEEDPDDVPHGHITSLAVKRSHRRLGLAQKLMDQASRAMIENFNAKYVSLHVRKSNRAALHLYSNTLNFQISEVEPKYYADGEDAYAMKRDLTQMADELRRHLELKEKGRHVVLGAIENKVESKGNSPPSSGEACREEKGLAAEDSGGDSKDLSEVSETTESTDVKDSSEASDSAS
B5 was tested, and the binding (GST-FIH (human), Q9NWT6 [5]) was “binds” and the binding (GST-FIH (human), Q9NWT6 [6]) was “binds”.

B6: NAA10, endogenous (enzyme, UniProt P41227 1-235)
chain: MNIRNARPEDLMNMQHCNLLCLPENYQMKYYFYHGLSWPQLSYIAEDENGKIVGYVLAKMEEDPDDVPHGHITSLAVKRSHRRLGLAQKLMDQASRAMIENFNAKYVSLHVRKSNRAALHLYSNTLNFQISEVEPKYYADGEDAYAMKRDLTQMADELRRHLELKEKGRHVVLGAIENKVESKGNSPPSSGEACREEKGLAAEDSGGDSKDLSEVSETTESTDVKDSSEASDSAS
With B6 the binding [7] was “binds”.
